Data taken from patent US20030219494A1, “Compositions and methods of using them” (priority 2002, published 2003).

Tests used:
[1] = system: mechanical allodynia in STZ-diabetic DA rats; assay: von Frey antinociception (relief of mechanical allodynia) after single s.c. opioid in STZ-diabetic DA rats, standard chow or dietary L-arginine
Method: Deep and stable anaesthesia was induced with a mixture of ketamine (100 mg/kg, i.p.) and xylazine (16 mg/kg, i.p.) to facilitate insertion of a polyethylene cannula (previously filled with 0.1 ml of sterile saline) into the right common jugular vein. Jugular vein cannulae were tested for correct placement by the withdrawal of a small amount of blood. Diabetes was induced following an acute i.v. injection of streptozotocin (STZ) (85 mg/kg) in 0.1 M citrate buffer (pH 4.5) into the jugular vein.
Naïve non-diabetic rats (n=36) were used in the control experiments. Following STZ administration, benzylpenicillin (60 mg, s.c.) was administered to prevent infection and rats were monitored closely during surgical recovery. Rats were then housed singly or in pairs for period of 3 wks to 38 wks, depending upon the study cohort to which they belonged.
(§1) Multiple aliquots of these stock solutions were stored at −20° C. until required. […] Whilst under light anaesthesia with CO2/O2 (50:50%), rats received a single s.c. injection (100 μL) of one opioid or vehicle (saline) into the dorsal region of the base of the neck, using a 250 μL Hamilton syringe.
Mechanical allodynia, the distinguishing feature of diabetic neuropathic pain, was quantified using von Frey filaments. Rats were placed in a metabolic cage (20 cm×20 cm×20 cm) with a metal mesh floor and allowed to acclimatise for approximately 10 min. von Frey filaments were used to quantify the lowest mechanical threshold required for a brisk paw withdrawal reflex. The force was applied to the plantar surface of the left hindpaw and held until the filament buckled slightly. The absence of a response after 5 s prompted application of the next filament of increasing force. Filaments available for use included those that produced a buckling weight of 2, 4, 5, 6, 8, 10, 12, 14, 16, and 18 g. Filaments were calibrated daily before undertaking antinociceptive testing. […] Pre-drug (opioid or saline) responses were the mean of three readings taken ≈5 min apart. Assessment of von Frey filament responsiveness was determined at the following times post-opioid (or saline) administration: 15, 30, 45, 60, 90, 120 and 180 min.
The von Frey scores for individual rats were converted to the Percentage of the Maximum Possible Antinociceptive Effect (% MPE), according to the formula: [formula]
The mean (±SEM) percentage maximum AUC (% Max AUC) was calculated according to the following formula: [formula]
ED50 estimation was facilitated by the inclusion of theoretical maximum and minimum % Max AUC values.
This study comprised three groups of STZ-diabetic DA rats. […] Subsequent doses were chosen to facilitate construction of dose-response curves for the alleviation of tactile allodynia. Antinociception was quantified using calibrated von Frey filaments.

[2] = system: naïve control non-diabetic DA rats; assay: von Frey antinociception after single s.c. opioid in control non-diabetic DA rats; format: in vivo, rat; conditions: morphine s.c.
Method: as §1
Mechanical allodynia, the distinguishing feature of diabetic neuropathic pain, was quantified using von Frey filaments. Rats were placed in a metabolic cage (20 cm×20 cm×20 cm) with a metal mesh floor and allowed to acclimatise for approximately 10 min. von Frey filaments were used to quantify the lowest mechanical threshold required for a brisk paw withdrawal reflex. The force was applied to the plantar surface of the left hindpaw and held until the filament buckled slightly. The absence of a response after 5 s prompted application of the next filament of increasing force. Filaments available for use included those that produced a buckling weight of 2, 4, 5, 6, 8, 10, 12, 14, 16, and 18 g. […] Pre-drug (opioid or saline) responses were the mean of three readings taken ≈5 min apart. Assessment of von Frey filament responsiveness was determined at the following times post-opioid (or saline) administration: 15, 30, 45, 60, 90, 120 and 180 min. […]
The mean (±SEM) percentage maximum AUC (% Max AUC) was calculated according to the following formula: [formula] […]

## CN1CC[C@]23c4c5ccc(O)c4O[C@H]2[C@@H](O)C=C[C@H]3[C@H]1C5 [morphine]
[1]; 12 wks post-STZ, standard chow, s.c.
  antinociceptive efficacy/potency: completely abolished
[1]; by 3 wks post-STZ
  rightward shift in the dose-response curve versus non-diabetic rats: ≈ 2.5 fold
[1]; by 9 wks post-STZ
  decrease in potency relative to weight-matched control non-diabetic rats: ≈ 2 fold
[1]; morphine 6.1 mg/kg s.c., 4 wks dietary L-arginine (Group 2)
  increase in extent and duration of antinociception (AUC) versus 14-wk STZ-diabetic rats on standard chow: 21 fold
[1]; morphine 6.1 mg/kg s.c., 9 wks post-STZ, standard chow
  % MPE AUC (±SEM): 63.4±7.5 % MPE-h
[1]; morphine 6.1 mg/kg s.c., 14 wks post-STZ, standard chow
  % MPE AUC: 5.2±2.5 % MPE-h
[1]; morphine 6.1 mg/kg s.c., 16 wks post-STZ, 7 wks dietary L-arginine (Group 1)
  % MPE AUC (±SEM): 101.9 (±1.9) % MPE-h
[1]; morphine 6.1 mg/kg s.c., 18 wks post-STZ, 4 wks dietary L-arginine (Group 2)
  % MPE AUC: 109.8±28.6 % MPE-h
[1]; morphine 6.1 mg/kg s.c., 20 wks post-STZ, 11 wks dietary L-arginine (Group 1)
  % MPE AUC (±SEM): 119.2 (±19.1) % MPE-h
[1]; morphine 6.1 mg/kg s.c., 22 wks post-STZ, 8 wks dietary L-arginine (Group 2)
  % MPE AUC: 149.5±9.5 % MPE-h
[1]; morphine 6.1 mg/kg s.c., 34 wks post-STZ, 4 wks dietary L-arginine (Group 3)
  % MPE AUC: 62.2±15.8 % MPE-h
[1]; morphine 6.1 mg/kg s.c., 38 wks post-STZ, 8 wks dietary L-arginine (Group 3)
  % MPE AUC: 117.1 (±15.4) % MPE-h
[1]; morphine 6.1 mg/kg s.c., Group 3
  % MPE AUC after 8 wks relative to 4 wks of L-arginine (larger by): approximately 190%
[2]
  % MPE AUC: 136.9±16.1 % MPE-h
